From patent US20190389961A1
Results are given in words; binding and its absence hold for the method and conditions named. Some entries that bind do so weakly or less than the wild type.

Key:
Assay in all cases: flow cytometry, Hek-293T cells expressing the mutant
[1] = molecular target: T1, human CD39 mutant 2B (human) (UniProt P49961)
T1 sequence: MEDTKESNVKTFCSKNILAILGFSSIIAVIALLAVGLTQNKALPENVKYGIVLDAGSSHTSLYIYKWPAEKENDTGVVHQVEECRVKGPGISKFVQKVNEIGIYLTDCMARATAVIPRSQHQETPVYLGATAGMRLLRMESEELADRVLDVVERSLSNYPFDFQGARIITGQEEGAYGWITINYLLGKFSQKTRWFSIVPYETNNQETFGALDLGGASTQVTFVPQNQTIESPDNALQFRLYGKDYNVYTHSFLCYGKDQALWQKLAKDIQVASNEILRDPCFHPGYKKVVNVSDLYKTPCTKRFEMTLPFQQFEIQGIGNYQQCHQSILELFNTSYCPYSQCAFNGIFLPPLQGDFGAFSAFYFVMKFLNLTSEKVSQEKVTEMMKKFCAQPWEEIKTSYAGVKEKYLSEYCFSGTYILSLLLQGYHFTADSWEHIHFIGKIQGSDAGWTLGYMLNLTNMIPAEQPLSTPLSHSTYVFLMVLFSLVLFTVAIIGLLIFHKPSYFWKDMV

[2] = molecular target: T2, human CD39 mutant 13 (human) (UniProt P49961)
T2 sequence: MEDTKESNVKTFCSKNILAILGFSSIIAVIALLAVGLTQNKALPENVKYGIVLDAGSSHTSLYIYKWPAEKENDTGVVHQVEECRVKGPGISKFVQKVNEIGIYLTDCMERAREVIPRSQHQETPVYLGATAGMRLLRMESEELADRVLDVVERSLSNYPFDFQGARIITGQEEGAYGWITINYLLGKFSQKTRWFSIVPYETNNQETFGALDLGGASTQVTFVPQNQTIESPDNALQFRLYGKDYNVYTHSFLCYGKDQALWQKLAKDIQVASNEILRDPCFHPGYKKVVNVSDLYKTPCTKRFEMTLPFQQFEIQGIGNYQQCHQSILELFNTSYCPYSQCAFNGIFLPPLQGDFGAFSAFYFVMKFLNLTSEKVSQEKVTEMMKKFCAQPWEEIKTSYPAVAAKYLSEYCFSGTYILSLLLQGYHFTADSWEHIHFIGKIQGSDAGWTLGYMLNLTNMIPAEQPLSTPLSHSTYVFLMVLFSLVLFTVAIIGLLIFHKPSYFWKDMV

[3] = molecular target: T3, human CD39 mutant 4 (human) (UniProt P49961)
T3 sequence: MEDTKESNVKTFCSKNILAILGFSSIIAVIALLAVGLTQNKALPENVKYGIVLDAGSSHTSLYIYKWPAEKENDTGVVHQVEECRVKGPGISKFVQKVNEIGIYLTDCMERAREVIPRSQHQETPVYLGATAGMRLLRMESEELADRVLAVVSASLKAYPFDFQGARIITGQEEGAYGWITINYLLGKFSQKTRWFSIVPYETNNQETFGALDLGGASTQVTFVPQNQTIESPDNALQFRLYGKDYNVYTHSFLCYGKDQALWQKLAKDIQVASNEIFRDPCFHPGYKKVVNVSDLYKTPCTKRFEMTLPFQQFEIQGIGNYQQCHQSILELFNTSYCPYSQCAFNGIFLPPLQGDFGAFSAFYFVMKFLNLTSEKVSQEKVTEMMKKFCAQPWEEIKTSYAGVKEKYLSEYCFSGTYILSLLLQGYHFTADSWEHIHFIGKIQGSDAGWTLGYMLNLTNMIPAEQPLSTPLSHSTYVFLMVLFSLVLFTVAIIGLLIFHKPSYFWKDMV

[4] = molecular target: T4, human CD39 mutant 12 (human) (UniProt P49961)
T4 sequence: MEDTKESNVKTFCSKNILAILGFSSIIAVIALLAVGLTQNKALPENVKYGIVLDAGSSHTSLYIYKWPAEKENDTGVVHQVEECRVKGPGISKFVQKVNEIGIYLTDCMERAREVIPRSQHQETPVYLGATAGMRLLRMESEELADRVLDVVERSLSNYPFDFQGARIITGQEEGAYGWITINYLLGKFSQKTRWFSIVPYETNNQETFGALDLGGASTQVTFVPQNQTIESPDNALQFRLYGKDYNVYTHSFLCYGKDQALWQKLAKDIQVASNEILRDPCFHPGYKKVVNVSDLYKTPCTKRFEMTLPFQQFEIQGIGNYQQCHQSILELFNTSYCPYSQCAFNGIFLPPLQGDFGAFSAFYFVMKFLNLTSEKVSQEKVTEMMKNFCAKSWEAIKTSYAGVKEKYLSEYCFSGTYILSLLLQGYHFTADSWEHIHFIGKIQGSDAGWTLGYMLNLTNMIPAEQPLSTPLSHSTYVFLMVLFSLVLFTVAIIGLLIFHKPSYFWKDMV

[5] = molecular target: T5, human CD39 mutant 17 (human) (UniProt P49961)
T5 sequence: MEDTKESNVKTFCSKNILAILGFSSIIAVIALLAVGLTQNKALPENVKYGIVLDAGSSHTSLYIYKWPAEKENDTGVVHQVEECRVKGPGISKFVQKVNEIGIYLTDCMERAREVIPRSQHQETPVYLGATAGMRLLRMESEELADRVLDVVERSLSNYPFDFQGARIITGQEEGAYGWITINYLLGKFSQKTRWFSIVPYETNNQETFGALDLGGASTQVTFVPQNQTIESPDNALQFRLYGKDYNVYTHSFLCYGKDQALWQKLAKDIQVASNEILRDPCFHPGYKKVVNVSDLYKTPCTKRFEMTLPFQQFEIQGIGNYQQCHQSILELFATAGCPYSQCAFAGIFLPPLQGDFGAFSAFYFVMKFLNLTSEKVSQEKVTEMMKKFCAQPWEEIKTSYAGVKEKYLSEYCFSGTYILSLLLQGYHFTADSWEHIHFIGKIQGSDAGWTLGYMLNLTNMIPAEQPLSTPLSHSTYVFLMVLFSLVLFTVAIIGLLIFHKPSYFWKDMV

Measured: binding

B1: antibody I-399 (antibody, V domains shown)
VH: PVQLQQPGAEVVMPGASVKLSCKASGYTFTSFWMNWMRQRPGQGLEWIGEIDPSDFYTNSNQRFKGKATLTVDKSSSTAYMQLSSLTSEDSAVYFCARGDFGWYFDVWGTGTSVTVSS
VL: EIVLTQSPTTMTSSPGEKITFTCSASSSINSNYLHWYQQKPGFSPKLLIYRTSNLASGVPTRFSGSGSGTSYSLTIGTMEAEDVATYYCQQGSSLPRTFGGGTKLEIK
binds: [1] | [2] | [3] | [4] | [5]
